Assay results as given in paper PMC4476799, “Englerin A Agonizes the TRPC4/C5 Cation Channels to Inhibit Tumor Cell Line Proliferation” (PLoS ONE, 2015).
Further values from the same series stand in other lists.

System: cancer cell lines from the cancer cell line encyclopedia (CCLE)
Assay: Cell line profiling (CLiP) proliferation experiment
Type: cell-based
Set-up: ACTIVITY_AREA: scale not given here; AMAX: unit not given here
Method: Compound profiling experiment and data analysis was performed as previously described. Data was imported and plotted using the Tibco Spotfire DXP application. Lines were categorized as sensitive, intermediate and refractory as follows: Amax<-40 & Inflection Point <2 ~ Sensitive, Amax>-20 & Inflection Point >10 ~ Refractory, all else were called Intermediate. Cancer Cell line HG-U133 Plus 2 data was processed and normalized as described. […] Five sets of refractory cell lines were generated from the pool of refractory cell lines trying to match the lineage composition of the set of sensitive cell lines. The limma package was used as previously described to perform the statistical comparison.

[1] = OCI-AML3, haematopoietic_and_lymphoid_tissue, acute_myeloid_leukaemia
[2] = OCI-LY3 (haematopoietic_and_lymphoid_tissue)
[3] = OCI-LY3, haematopoietic_and_lymphoid_tissue, diffuse_large_B_cell_lymphoma
[4] = OCI-LY-19, haematopoietic_and_lymphoid_tissue, diffuse_large_B_cell_lymphoma
[5] = OCI-M1, haematopoietic_and_lymphoid_tissue, acute_myeloid_leukaemia
[6] = OE19, oesophagus, adenocarcinoma
[7] = RL (haematopoietic_and_lymphoid_tissue)
[8] = RS4;11 (haematopoietic_and_lymphoid_tissue)

CC(C)[C@@]12C[C@@H](O)[C@@](C)(O1)[C@@H]1CC[C@@H](C)[C@H]1[C@@H]2OC(=O)/C=C/c1ccccc1 [Englerin B]
RESPONSE (OCI-AML2 cells): INTERMEDIATE | ACTIVITY_AREA [1]: 39.66 | AMAX [1]: -74.66 | RESPONSE [1]: INTERMEDIATE | ACTIVITY_AREA (OCI-AML3 cells): 39.66 | AMAX (OCI-AML3 cells): -74.66 | RESPONSE (OCI-AML3 cells): INTERMEDIATE | ACTIVITY_AREA [2]: 85.76 | AMAX [2]: -88.94 | RESPONSE [2]: INTERMEDIATE | ACTIVITY_AREA [3]: 85.76 | AMAX [3]: -88.94 | RESPONSE [3]: INTERMEDIATE | ACTIVITY_AREA [4]: 40.8 | AMAX [4]: -90.15 | RESPONSE [4]: INTERMEDIATE | ACTIVITY_AREA (OCI-LY-19 cells): 40.8 | AMAX (OCI-LY-19 cells): -90.15 | RESPONSE (OCI-LY-19 cells): INTERMEDIATE | ACTIVITY_AREA [5]: 42.99 | AMAX [5]: -77.04 | RESPONSE [5]: INTERMEDIATE | ACTIVITY_AREA (OCI-M1 cells): 42.99 | AMAX (OCI-M1 cells): -77.04 | RESPONSE (OCI-M1 cells): INTERMEDIATE | ACTIVITY_AREA (OE19 (oesophagus)): 36.09 | AMAX (OE19 (oesophagus)): -66.7 | RESPONSE (OE19 (oesophagus)): INTERMEDIATE | ACTIVITY_AREA [6]: 36.09 | AMAX [6]: -66.7 | RESPONSE [6]: INTERMEDIATE | ACTIVITY_AREA (OMM2.3 (eye)): 18.16 | AMAX (OMM2.3 (eye)): -44.55 | RESPONSE (OMM2.3 (eye)): INTERMEDIATE | ACTIVITY_AREA (OMM2.5 cells): 0.63 | AMAX (OMM2.5 cells): 4.64 | RESPONSE (OMM2.5 cells): REFRACTORY | ACTIVITY_AREA (ONCO-DG-1 cells): 143.78 | AMAX (ONCO-DG-1 cells): -75.46 | RESPONSE (ONCO-DG-1 cells): INTERMEDIATE | ACTIVITY_AREA (OS-RC-2 cells): 15.73 | AMAX (OS-RC-2 cells): -35.15 | RESPONSE (OS-RC-2 cells): INTERMEDIATE | ACTIVITY_AREA (OUMS-23 cells): 39.54 | AMAX (OUMS-23 cells): -76.24 | RESPONSE (OUMS-23 cells): INTERMEDIATE | ACTIVITY_AREA (OV7 cells): 174.64 | AMAX (OV7 cells): -34.89 | RESPONSE (OV7 cells): INTERMEDIATE | ACTIVITY_AREA (OV56 cells): 34.53 | AMAX (OV56 cells): -42.75 | RESPONSE (OV56 cells): INTERMEDIATE | ACTIVITY_AREA (OV-90 cells): 32.55 | AMAX (OV-90 cells): -42.84 | RESPONSE (OV-90 cells): INTERMEDIATE | ACTIVITY_AREA (OVCAR-4 cells): 59.14 | AMAX (OVCAR-4 cells): -50.24 | RESPONSE (OVCAR-4 cells): INTERMEDIATE | ACTIVITY_AREA (OVCAR-8 cells): 57.78 | AMAX (OVCAR-8 cells): -69.26 | RESPONSE (OVCAR-8 cells): INTERMEDIATE | ACTIVITY_AREA (OVISE cells): 51.17 | AMAX (OVISE cells): -68.44 | RESPONSE (OVISE cells): INTERMEDIATE | ACTIVITY_AREA (OVSAHO cells): 17.26 | AMAX (OVSAHO cells): -60.32 | RESPONSE (OVSAHO cells): INTERMEDIATE | ACTIVITY_AREA (P3HR-1 cells): 71.41 | AMAX (P3HR-1 cells): -54.24 | RESPONSE (P3HR-1 cells): INTERMEDIATE | ACTIVITY_AREA (P12-ICHIKAWA cells): 32.54 | AMAX (P12-ICHIKAWA cells): -67.41 | RESPONSE (P12-ICHIKAWA cells): INTERMEDIATE | ACTIVITY_AREA (P31/FUJ cells): 32.81 | AMAX (P31/FUJ cells): -79.81 | RESPONSE (P31/FUJ cells): INTERMEDIATE | ACTIVITY_AREA (PANC-1 cells): 38.24 | AMAX (PANC-1 cells): -57.06 | RESPONSE (PANC-1 cells): INTERMEDIATE | ACTIVITY_AREA (PC-3 cells): 27.62 | AMAX (PC-3 cells): -56.65 | RESPONSE (PC-3 cells): INTERMEDIATE | ACTIVITY_AREA (PC-14 cells): 53.2 | AMAX (PC-14 cells): -60.86 | RESPONSE (PC-14 cells): INTERMEDIATE | ACTIVITY_AREA (PE/CA-PJ41 (clone D2) cells): 24.88 | AMAX (PE/CA-PJ41 (clone D2) cells): -57.93 | RESPONSE (PE/CA-PJ41 (clone D2) cells): INTERMEDIATE | ACTIVITY_AREA (PEER cells): 70.62 | AMAX (PEER cells): -84.18 | RESPONSE (PEER cells): INTERMEDIATE | ACTIVITY_AREA (PF-382 cells): 21.49 | AMAX (PF-382 cells): -65.49 | RESPONSE (PF-382 cells): INTERMEDIATE | ACTIVITY_AREA (PL-21 cells): 24.72 | AMAX (PL-21 cells): -72.2 | RESPONSE (PL-21 cells): INTERMEDIATE | ACTIVITY_AREA (PLC/PRF/5 (liver)): 81.8 | AMAX (PLC/PRF/5 (liver)): -62.62 | RESPONSE (PLC/PRF/5 (liver)): INTERMEDIATE | ACTIVITY_AREA (PSN1 cells): 48.4 | AMAX (PSN1 cells): -50.26 | RESPONSE (PSN1 cells): INTERMEDIATE | ACTIVITY_AREA (Panc 02.03 cells): 33.74 | AMAX (Panc 02.03 cells): -6.12 | RESPONSE (Panc 02.03 cells): REFRACTORY | ACTIVITY_AREA (Panc 03.27 cells): 32.48 | AMAX (Panc 03.27 cells): -68.65 | RESPONSE (Panc 03.27 cells): INTERMEDIATE | ACTIVITY_AREA (Panc 04.03 cells): 25.22 | AMAX (Panc 04.03 cells): -42.01 | RESPONSE (Panc 04.03 cells): INTERMEDIATE | ACTIVITY_AREA (Panc 10.05 cells): 44.86 | AMAX (Panc 10.05 cells): -68.86 | RESPONSE (Panc 10.05 cells): INTERMEDIATE | ACTIVITY_AREA (RCC10RGB cells): 23.96 | AMAX (RCC10RGB cells): -33.3 | RESPONSE (RCC10RGB cells): INTERMEDIATE | ACTIVITY_AREA (RCH-ACV cells): 21.26 | AMAX (RCH-ACV cells): -65 | RESPONSE (RCH-ACV cells): INTERMEDIATE | ACTIVITY_AREA (RD cells): 44.05 | AMAX (RD cells): -26.78 | RESPONSE (RD cells): INTERMEDIATE | ACTIVITY_AREA (REC-1 cells): 20.74 | AMAX (REC-1 cells): -85.12 | RESPONSE (REC-1 cells): INTERMEDIATE | ACTIVITY_AREA (RERF-LC-AI cells): 24.39 | AMAX (RERF-LC-AI cells): -47.09 | RESPONSE (RERF-LC-AI cells): INTERMEDIATE | ACTIVITY_AREA (RH-18 cells): 79.38 | AMAX (RH-18 cells): -16.44 | RESPONSE (RH-18 cells): REFRACTORY | ACTIVITY_AREA (RH-41 (soft_tissue)): 42.17 | AMAX (RH-41 (soft_tissue)): -95.73 | RESPONSE (RH-41 (soft_tissue)): INTERMEDIATE | ACTIVITY_AREA (RI-1 cells): 98.96 | AMAX (RI-1 cells): -92.55 | RESPONSE (RI-1 cells): INTERMEDIATE | ACTIVITY_AREA (RKN (soft_tissue)): 25.89 | AMAX (RKN (soft_tissue)): -49.43 | RESPONSE (RKN (soft_tissue)): INTERMEDIATE | ACTIVITY_AREA (RKO (large_intestine)): 25.58 | AMAX (RKO (large_intestine)): -79.57 | RESPONSE (RKO (large_intestine)): INTERMEDIATE | ACTIVITY_AREA [7]: 38.44 | AMAX [7]: -90.86 | RESPONSE [7]: INTERMEDIATE | ACTIVITY_AREA (RMUG-S (ovary)): 7.3 | AMAX (RMUG-S (ovary)): 2.82 | RESPONSE (RMUG-S (ovary)): REFRACTORY | ACTIVITY_AREA (RPMI 8226 cells): 43 | AMAX (RPMI 8226 cells): -80.8 | RESPONSE (RPMI 8226 cells): INTERMEDIATE | ACTIVITY_AREA (RPMI-7951 (skin)): 38.85 | AMAX (RPMI-7951 (skin)): -60.36 | RESPONSE (RPMI-7951 (skin)): INTERMEDIATE | ACTIVITY_AREA (RPMI-8402 cells): 70.19 | AMAX (RPMI-8402 cells): -61.1 | RESPONSE (RPMI-8402 cells): INTERMEDIATE | ACTIVITY_AREA [8]: 34.25 | AMAX [8]: -73.99 | RESPONSE [8]: INTERMEDIATE | ACTIVITY_AREA (RT-112 cells): 66.59 | AMAX (RT-112 cells): -78.07 | RESPONSE (RT-112 cells): INTERMEDIATE | ACTIVITY_AREA (RVH-421 cells): 25.69 | AMAX (RVH-421 cells): -41.39 | RESPONSE (RVH-421 cells): INTERMEDIATE | ACTIVITY_AREA (Raji cells): 46.45 | AMAX (Raji cells): -92.06 | RESPONSE (Raji cells): INTERMEDIATE
